The supplement of paper PMC5949888
Most values lie at the floor of the assay. Slopes are relative: functional sequences can read slightly below zero.

Tested on: Saccharomyces cerevisiae PS128 hsf1 delta, HSF1(1-493) fusion
Test: growth estimate (transactivation domain function in HSF1 fusion, heat-shock survival) (a.u. (slope of normalised read count over time)); higher = stronger growth at 37°C, i.e. more transactivation activity
Conditions: library: random library

Substance	growth estimate
AVLGKKLVNRPLHRHRRATP	< -0.25
IHYTSSAPNVPLPPSLKACK	< -0.25
CSG	< -0.25
YRHPSPPCRYQGKCPVCP	-0.214
TRYVPKSVN	< -0.25
TYHFTCLFWALESEMSVEML	< -0.25
EQLVTRRDRLALKLQPPTRV	< -0.25
RGMGPQFSFVA	< -0.25
LCPKVLREIVGRTPLGKWAS	< -0.25
IVVHLDFVVDCFSFPC	< -0.25
GRPCIRLLKTAGLL	< -0.25
TQGGPQIESPGLS	< -0.25
RASEA	< -0.25
LTAATRLPMCSCVCCGPGTT	< -0.25
CGNADHWGLRVTPGQAHERT	< -0.25
VVISANVCPWGSCEHARVPS	< -0.25
RELLQVSLFTARFQ	-0.246
NAQAYGHVC	< -0.25
RRRVPAD	< -0.25
KNKETGGPAVHPRHGCSQSH	< -0.25
GSYNSIHGDSLLIGEP	< -0.25

Substance	growth estimate
NKCADGVARPRSSEVACKPQ	< -0.25
GLRQVVAH	< -0.25
TVQASGPAIQVVSENAELNQ	< -0.25
VGLSGDALGAYALVFPMVLG	< -0.25
SSCRGVRAKRDANPAMGGYR	< -0.25
NPR	< -0.25
DGPPQVAVEGAGGAM	< -0.25
PHEECFLLAVGIMLCPIRLC	< -0.25
LTPVTRLRRLLCCAAV	< -0.25
RPLF	< -0.25
FMEL	< -0.25
RDKYFHNYMRG	< -0.25
YASN	< -0.25
PGRATPLVSSPHKGVPDIRF	< -0.25
RVN	< -0.25
LSWEDTRALVFVGAQSPSPY	< -0.25
LHHYRS	< -0.25
RNSSRQPET	< -0.25
SAVKRTDVSVSAVVHRISTH	< -0.25
ILPLMAPRSSGRYVSRIRYS	-0.246
VGTSPRVA	< -0.25

5 records drawn at random from those above:
Substance	growth estimate
PGRATPLVSSPHKGVPDIRF	< -0.25
NKCADGVARPRSSEVACKPQ	< -0.25
ILPLMAPRSSGRYVSRIRYS	-0.246
GLRQVVAH	< -0.25
SSCRGVRAKRDANPAMGGYR	< -0.25

Next records follow:

Substance	growth estimate
GSYSRWDKFYRLLIPRVEDR	< -0.25
THPFGCLWGS	< -0.25
GKGADPQHSARRCSNLGNVY	-0.231
FPGRVLRIIRA	< -0.25
AEVSIFGQVG	< -0.25
LQFAFMPSECRLKWSMVPGT	< -0.25
LTI	< -0.25
LDIRFKNKLVNLAL	< -0.25
MICTV	< -0.25
LWANAHAVLATASPSKMSQR	< -0.25
SWLILMAKRVTRYEHGGRIF	< -0.25
TPEYPTRGVSHLSIFCPASR	< -0.25
ATVRI	< -0.25
SSQISLYPSIHSGIYPFFHV	< -0.25
STVLSDHIRGMCPELPLLVS	< -0.25
LHQRYSGSGAHLVSPGLRGR	< -0.25
LGAGSKPTGSKWAFR	< -0.25
HGFPPGSVSG	< -0.25
RRMSNLELRDVMEQK	< -0.25
YVME	< -0.25
SAGYGEYSRCGG	< -0.25

Substance	growth estimate
RLHIGCQDVGGFEHSWGEFG	< -0.25
GEKFETE	< -0.25
AVPSTLLLHFQDGAHV	-0.243
ILS	< -0.253
HATGVNETERTLRVSTFCST	< -0.25
PGYC	< -0.25
VDQREPGDQPCGSAVSYSPF	-0.246
DFDYKGGPRFLDGEYSARAA	< -0.25
SFSKRLKPIPDGCSELLIDP	< -0.25
RSCAKRMFD	< -0.25
HLLVISG	< -0.25
LSARPARAGGRRLIDENPTS	< -0.25
RRTSPSIGNEDRG	< -0.25
YELRALGEITVFQQ	< -0.25
QLL	< -0.25
ACTKMECTME	< -0.25
NLTLKAEQWRVSE	< -0.25
SKSNLGWVEVCNEGHYWMRV	< -0.25
RIKFV	0.598
